Results deposited as PubChem BioAssay AID652272 (Drosophila RNAi Screening Center, 2013).

Aim: 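Genes whose knock-down decreases or increases Hedgehog reporter output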 (primary screen)
Cell system: Drosophila clone 8 (Cl8) cells
Knock-down reagent: long dsRNA against Drosophila genes
Detection: 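Plate reader light from a firefly reporter under a ptc promoter fragment that responds to Hedgehog, with Renilla light as transfection reference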
Reading the numbers: firefly Hh reporter signal: higher = more ptc reporter light; Renilla reference signal: higher = more Renilla control light
Hit rule: 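Called a hit if the two-replicate mean z-score lies below -2 or above +3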
Meaning of the calls: active = hit: reporter lowered or raised; inactive = not a hit
The screen tested about 21,000 reagents; this is a random part of those that have a named target and a result. In the full data, 503 (2.4%) are marked active. 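Raw plate light values, not normalised; calls rest on replicate z-scores that were not deposited; hits include reporter decreases as well as increases.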 Reagent sequences are not shown. Not stated in the record: the amount of reagent, the time to read-out.

| Target gene | DRSC id | firefly Hh reporter signal, replicate 1 | firefly Hh reporter signal, replicate 2 | Renilla reference signal, replicate 1 | Renilla reference signal, replicate 2 | activity call |
| --- | --- | --- | --- | --- | --- | --- |
| CG4020 | DRSC18337 | 76816 | 1.72e5 | 2935 | 6756 | inactive |
| nub | DRSC01260 | 6.15e5 | 3.55e5 | 27842 | 13176 | inactive |
| nub | DRSC02498 | 1.16e5 | 51173 | 3466 | 5328 | inactive |
| nub | DRSC02499 | 1.90e5 | 82995 | 4765 | 7558 | inactive |
| nub | DRSC03583 | 86181 | 42728 | 2504 | 4288 | inactive |
| Strn-Mlck | DRSC05032 | 71283 | 76914 | 3945 | 3126 | inactive |
| Strn-Mlck | DRSC05598 | 1.60e5 | 2.56e5 | 4441 | 12293 | inactive |
| Strn-Mlck | DRSC06571 | 1.02e5 | 60768 | 2792 | 4508 | inactive |
| Strn-Mlck | DRSC07471 | 67648 | 65475 | 1874 | 4122 | inactive |
| CG1537 | DRSC19662 | 1.22e5 | 3.22e5 | 3722 | 12045 | inactive |
| shep | DRSC08748 | 62304 | 1.15e5 | 1777 | 5658 | inactive |
| shep | DRSC09765 | 51788 | 1.01e5 | 5611 | 5868 | inactive |
| shep | DRSC09771 | 1.80e5 | 1.11e5 | 7266 | 4390 | inactive |
| ATPsynepsilonL | DRSC14548 | 52141 | 77466 | 2269 | 2369 | inactive |
| CG13102 | DRSC02202 | 71506 | 55066 | 2341 | 4492 | inactive |
| mib1 | DRSC10550 | 1.11e5 | – | 2071 | 3420 | inactive |
| Ppi1 | DRSC15421 | 73015 | 48519 | 1625 | 1632 | inactive |
| CG8565 | DRSC20112 | 81931 | 2.17e5 | 2780 | 9242 | inactive |
| Med | DRSC16737 | 80243 | 54576 | 3025 | 3076 | inactive |
| CG7029 | DRSC16177 | 83120 | 1.02e5 | 3655 | 3556 | inactive |
| CG6280 | DRSC06972 | 91265 | 59964 | 2698 | 4288 | inactive |

Next part, starting with the last 3 of the part before.
| Target gene | DRSC id | firefly Hh reporter signal, replicate 1 | firefly Hh reporter signal, replicate 2 | Renilla reference signal, replicate 1 | Renilla reference signal, replicate 2 | activity call |
| --- | --- | --- | --- | --- | --- | --- |
| Med | DRSC16737 | 80243 | 54576 | 3025 | 3076 | inactive |
| CG7029 | DRSC16177 | 83120 | 1.02e5 | 3655 | 3556 | inactive |
| CG6280 | DRSC06972 | 91265 | 59964 | 2698 | 4288 | inactive |
| HP4 | DRSC10958 | 95827 | 67197 | 4034 | 2941 | inactive |
| CG30054 | DRSC05354 | 1.95e5 | 2.31e5 | 4780 | 11081 | inactive |
| CG13445 | DRSC09992 | 68578 | – | 5869 | 4133 | active |
| Ogdh | DRSC09854 | 1.26e5 | 91068 | 4876 | 3987 | inactive |
| Ogdh | DRSC09855 | 1.07e5 | – | 4746 | 3618 | inactive |
| CG31689 | DRSC00734 | 1.72e5 | 1.10e5 | 3376 | 2388 | inactive |
| parvin | DRSC19468 | 76560 | 2.01e5 | 1321 | 8176 | inactive |
| CG16868 | DRSC06633 | 87003 | 59140 | 3616 | 2519 | inactive |
| CG14483 | DRSC06455 | 1.25e5 | 59068 | 3344 | 4952 | inactive |
| Cpr78E | DRSC11807 | 75754 | 88624 | 2595 | 2538 | inactive |
| CG33998 | DRSC05747 | 1.32e5 | 1.81e5 | 3525 | 7485 | inactive |
| cpa | DRSC04080 | 65115 | 39498 | 2570 | 1558 | inactive |
| CG14795 | DRSC18513 | 1.05e5 | 1.55e5 | 3786 | 6569 | inactive |
| CR13656 | DRSC13705 | 44754 | 2.16e5 | 11289 | 4496 | inactive |
| CR13656 | DRSC14656 | 4.99e5 | 99767 | 27210 | 3286 | inactive |
| CG17821 | DRSC06696 | 70769 | 46412 | 1955 | 3706 | inactive |
| DCTN1-p150 | DRSC11175 | 1.22e5 | 83938 | 4208 | 2601 | inactive |
| CG15449 | DRSC20521 | 1.49e5 | 3.04e5 | 5733 | 13412 | inactive |
